Results from US20030027152A1, “Generation of diagnostic tools to assay the human LHX3/P-LIM/LIM-3 factor” (Indiana University Advanced Research and Technology …, published 2003).
No constants are given. Whether binding was seen depends on the method and setting. Binding seen in cells or lysates may run through a third protein. Some entries that bind do so weakly or less than the wild type. For some assays here: Tags and fused reporters may be left off the sequences shown.

T1: NLI (nuclear LIM interactor), murine (mouse) (UniProt P70662)
T1 sequence (35S-methionine radiolabel, looked up): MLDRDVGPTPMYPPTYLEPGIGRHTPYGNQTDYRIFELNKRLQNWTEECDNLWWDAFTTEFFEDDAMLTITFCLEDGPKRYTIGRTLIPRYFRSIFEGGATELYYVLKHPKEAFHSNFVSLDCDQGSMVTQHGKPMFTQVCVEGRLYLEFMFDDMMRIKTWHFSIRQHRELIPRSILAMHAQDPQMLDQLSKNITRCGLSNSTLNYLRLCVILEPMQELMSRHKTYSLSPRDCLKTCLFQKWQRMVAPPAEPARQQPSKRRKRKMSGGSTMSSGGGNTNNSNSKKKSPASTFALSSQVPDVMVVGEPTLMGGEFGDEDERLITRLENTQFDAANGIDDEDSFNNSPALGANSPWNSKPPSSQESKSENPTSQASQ

T2: rat Pit-1 (rat) (UniProt P10037)
T2 sequence (35S-methionine radiolabel (in vitro translated protein), looked up): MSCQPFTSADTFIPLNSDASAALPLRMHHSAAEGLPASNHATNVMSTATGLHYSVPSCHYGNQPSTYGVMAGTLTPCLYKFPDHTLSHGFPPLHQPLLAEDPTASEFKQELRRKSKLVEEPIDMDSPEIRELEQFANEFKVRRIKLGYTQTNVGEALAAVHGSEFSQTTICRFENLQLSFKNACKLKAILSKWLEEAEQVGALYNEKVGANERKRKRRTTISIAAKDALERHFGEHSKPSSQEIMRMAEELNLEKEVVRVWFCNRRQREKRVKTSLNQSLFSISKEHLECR

T3: GST-pLhx3 fusion protein (porcine) (UniProt O97581)
T3 sequence: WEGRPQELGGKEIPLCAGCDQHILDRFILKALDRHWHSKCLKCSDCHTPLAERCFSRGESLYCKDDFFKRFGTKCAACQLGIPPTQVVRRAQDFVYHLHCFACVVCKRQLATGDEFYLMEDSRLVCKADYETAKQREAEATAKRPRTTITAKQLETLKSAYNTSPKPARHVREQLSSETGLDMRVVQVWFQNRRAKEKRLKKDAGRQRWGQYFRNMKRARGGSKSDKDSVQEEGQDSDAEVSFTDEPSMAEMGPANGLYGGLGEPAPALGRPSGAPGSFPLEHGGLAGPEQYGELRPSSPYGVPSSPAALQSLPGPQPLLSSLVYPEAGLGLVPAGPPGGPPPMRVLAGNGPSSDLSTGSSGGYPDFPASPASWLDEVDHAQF


Columns and labels:
[1] = molecular target: T1, NLI (nuclear LIM interactor), murine (mouse); assay: GST pull-down of 35S-labelled in vitro translated protein; fluorography
rat Pit-1 (rat) [2] = molecular target: T2, rat Pit-1 (rat); assay: as above
[3] = molecular target: T1, NLI (nuclear LIM interactor), murine (mouse); assay: in vitro protein/protein interaction assay (GST pull-down)
rat Pit-1 (rat) [4] = molecular target: T2, rat Pit-1 (rat); assay: as above
[5] = molecular target: GST-NLI fusion protein (mouse) [GST: P08515]; assay: GST pull-down of 35S-labelled in vitro translated protein; SDS-PAGE and fluorography
[6] = molecular target: T3, GST-pLhx3 fusion protein (porcine); assay: as above

binding [1]	binding (rat Pit-1 (rat) [2])	binding [3]	binding (rat Pit-1 (rat) [4])	binding [5]	binding [6]	Binder
binds	binds	binds	binds	binds		porcine Lhx3 (pLhx3) (protein, 35S-methionine radiolabel (in the pull-down assay)) WEGRPQELGGKEIPLCAGCDQHILDRFILKALDRHWHSKCLKCSDCHTPLAERCFSRGESLYCKDDFFKRFGTKCAACQLGIPPTQVVRRAQDFVYHLHCFACVVCKRQLATGDEFYLMEDSRLVCKADYETAKQREAEATAKRPRTTITAKQLETLKSAYNTSPKPARHVREQLSSETGLDMRVVQVWFQNRRAKEKRLKKDAGRQRWGQYFRNMKRARGGSKSDKDSVQEEGQDSDAEVSFTDEPSMAEMGPANGLYGGLGEPAPALGRPSGAPGSFPLEHGGLAGPEQYGELRPSSPYGVPSSPAALQSLPGPQPLLSSLVYPEAGLGLVPAGPPGGPPPMRVLAGNGPSSDLSTGSSGGYPDFPASPASWLDEVDHAQF
		binds	binds			GST-pLhx3 fusion protein (protein, not shown: a dimerising Fc or GST) WEGRPQELGGKEIPLCAGCDQHILDRFILKALDRHWHSKCLKCSDCHTPLAERCFSRGESLYCKDDFFKRFGTKCAACQLGIPPTQVVRRAQDFVYHLHCFACVVCKRQLATGDEFYLMEDSRLVCKADYETAKQREAEATAKRPRTTITAKQLETLKSAYNTSPKPARHVREQLSSETGLDMRVVQVWFQNRRAKEKRLKKDAGRQRWGQYFRNMKRARGGSKSDKDSVQEEGQDSDAEVSFTDEPSMAEMGPANGLYGGLGEPAPALGRPSGAPGSFPLEHGGLAGPEQYGELRPSSPYGVPSSPAALQSLPGPQPLLSSLVYPEAGLGLVPAGPPGGPPPMRVLAGNGPSSDLSTGSSGGYPDFPASPASWLDEVDHAQF
					binds	NLI (nuclear LIM interactor), murine (protein, mouse, UniProt P70662-3 1-375, looked up, 35S-methionine radiolabel) MLDRDVGPTPMYPPTYLEPGIGRHTPYGNQTDYRIFELNKRLQNWTEECDNLWWDAFTTEFFEDDAMLTITFCLEDGPKRYTIGRTLIPRYFRSIFEGGATELYYVLKHPKEAFHSNFVSLDCDQGSMVTQHGKPMFTQVCVEGRLYLEFMFDDMMRIKTWHFSIRQHRELIPRSILAMHAQDPQMLDQLSKNITRCGLSNSTLNYLRLCVILEPMQELMSRHKTYSLSPRDCLKTCLFQKWQRMVAPPAEPARQQPSKRRKRKMSGGSTMSSGGGNTNNSNSKKKSPASTFALSSQVPDVMVVGEPTLMGGEFGDEDERLITRLENTQFDAANGIDDEDSFNNSPALGANSPWNSKPPSSQESKSENPTSQASQ
